These are yes or no findings as the source states them, for the method shown. Binding seen in cells or lysates may run through a third protein. Where a sequence is shown, tags or fusion partners need not be part of it.
Molecular target: T1, Mbp1 yEmVenus PCA fusion protein (S. cerevisiae) (UniProt P39678)
T1 sequence: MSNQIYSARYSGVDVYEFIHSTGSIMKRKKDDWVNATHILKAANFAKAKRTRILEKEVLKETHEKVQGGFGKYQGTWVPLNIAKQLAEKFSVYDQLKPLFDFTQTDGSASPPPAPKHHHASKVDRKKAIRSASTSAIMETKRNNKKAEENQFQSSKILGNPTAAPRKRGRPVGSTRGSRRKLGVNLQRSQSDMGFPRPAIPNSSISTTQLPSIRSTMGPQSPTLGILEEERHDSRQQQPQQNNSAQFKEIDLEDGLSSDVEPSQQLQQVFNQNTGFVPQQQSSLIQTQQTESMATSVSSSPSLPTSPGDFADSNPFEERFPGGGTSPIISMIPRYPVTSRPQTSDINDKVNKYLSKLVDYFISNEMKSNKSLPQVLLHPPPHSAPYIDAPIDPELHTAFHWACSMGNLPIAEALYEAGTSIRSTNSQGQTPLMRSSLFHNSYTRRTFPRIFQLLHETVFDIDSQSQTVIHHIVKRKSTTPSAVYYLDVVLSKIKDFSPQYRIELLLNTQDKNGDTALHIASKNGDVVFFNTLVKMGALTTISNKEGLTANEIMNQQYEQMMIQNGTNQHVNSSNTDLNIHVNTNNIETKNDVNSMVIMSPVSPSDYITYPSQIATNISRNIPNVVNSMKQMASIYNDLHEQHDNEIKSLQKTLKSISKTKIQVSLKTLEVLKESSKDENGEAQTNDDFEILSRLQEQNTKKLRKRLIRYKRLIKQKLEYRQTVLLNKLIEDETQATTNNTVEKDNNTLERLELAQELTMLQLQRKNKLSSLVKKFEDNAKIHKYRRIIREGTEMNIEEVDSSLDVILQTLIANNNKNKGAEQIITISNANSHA
Assay: split reporter; yeast enhanced monomeric Venus (yEmVenus) protein-fragment complementation assay (PCA); VF[1] and VF[2] fusions co-expressed from p413ADHcen and p415ADHcen in wild-type MatA (BY4741) yeast; fluorescence microscopy of living cells at room temperature with image analysis (threshold 225 against autofluorescence of mock cells); the three Cdc28 PCAs with Swi4, Swi6 and Mbp1 were also read in 30 deletion strains and in elm1T551A

binding: no binding
B1: Swi4-VF[2] fusion protein (protein, UniProt P25302 1-1093)
chain: MPFDVLISNQKDNTNHQNITPISKSVLLAPHSNHPVIEIATYSETDVYECYIRGFETKIVMRRTKDDWINITQVFKIAQFSKTKRTKILEKESNDMQHEKVQGGYGRFQGTWIPLDSAKFLVNKYEIIDPVVNSILTFQFDPNNPPPKRSKNSILRKTSPGTKITSPSSYNKTPRKKNSSSSTSATTTAANKKGKKNASINQPNPSPLQNLVFQTPQQFQVNSSMNIMNNNDNHTTMNFNNDTRHNLINNISNNSNQSTIIQQQKSIHENSFNNNYSATQKPLQFFPIPTNLQNKNVALNNPNNNDSNSYSHNIDNVINSSNNNNNGNNNNLIIVPDGPMQSQQQQQHHHEYLTNNFNHSMMDSITNGNSKKRRKKLNQSNEQQFYNQQEKIQRHFKLMKQPLLWQSFQNPNDHHNEYCDSNGSNNNNNTVASNGSSIEVFSSNENDNSMNMSSRSMTPFSAGNTSSQNKLENKMTDQEYKQTILTILSSERSSDVDQALLATLYPAPKNFNINFEIDDQGHTPLHWATAMANIPLIKMLITLNANALQCNKLGFNCITKSIFYNNCYKENAFDEIISILKICLITPDVNGRLPFHYLIELSVNKSKNPMIIKSYMDSIILSLGQQDYNLLKICLNYQDNIGNTPLHLSALNLNFEVYNRLVYLGASTDILNLDNESPASIMNKFNTPAGGSNSRNNNTKADRKLARNLPQKNYYQQQQQQQQPQNNVKIPKIIKTQHPDKEDSTADVNIAKTDSEVNESQYLHSNQPNSTNMNTIMEDLSNINSFVTSSVIKDIKSTPSKILENSPILYRRRSQSISDEKEKAKDNENQVEKKKDPLNSVKTAMPSLESPSSLLPIQMSPLGKYSKPLSQQINKLNTKVSSLQRIMGEEIKNLDNEVVETESSISNNKKRLITIAHQIEDAFDSVSNKTPINSISDLQSRIKETSSKLNSEKQNFIQSLEKSQALKLATIVQDEESKVDMNTNSSSHPEKQEDEEPIPKSTSETSSPKNTKADAKFSNTVQESYDVNETLRLATELTILQFKRRMTTLKISEAKSKINSSVKLDKYRNLIGITIENIDSKLDDIEKDLRANA

Source: publication PMC2198942
